{
  "source": "paper PMC4742189",
  "binders": {"B1": {"name": "Noxa, Q13794 1-54 (protein)", "chain": "MPGKKARKNAQPSPARAPAELEVECATQLRRFGDKLNFRQKLLNLISKLFCSGT"}},
  "target": "myeloid cell leukemia 1 (Mcl-1) (human (endogenous in SF188)), Q07820",
  "test": "co-IP; Dynabeads Co-Immunoprecipitation Kit; magnetic beads conjugated with monoclonal mouse anti-Mcl-1 (clone 22) or non-specific mouse IgG; whole-cell extracts of SF188 cells treated 6 h with ABT263, TIC10/ONC201, both or solvent under serum starvation; lysates incubated 30 min at 4°C; immunoblot for Mcl-1, Noxa and BIM",
  "settings": "remark: other sources report otherwise",
  "note": "These are yes or no findings as the source states them, for the method shown. In cells and extracts the contact can be indirect. Some binding calls cover weakened binding; strength is not graded here.",
  "data": [
    {"binder": "B1", "values": [
      {"measurement": "binding", "result": "binds"}
    ]}
  ]
}
